# In patent US20230285402A1, “Compositions and Methods of Modulating Short-Chain Dehydrogenase Activity” (BOARD OF REGENTS OF THE UNIVERSITY OF TEXAS SYSTEM, priority 2013, published 2023):
# This continues a long series; more values of the same kind are listed elsewhere.
# Tested on: C57BL/6J female mice
# Assay: Survival of mice after whole body irradiation, SW033291 5 mg/kg IP
# Format: in vivo, mouse
smiles,measurement,setting,value
"CCCC[S+]([O-])c1sc2nc(-c3cccs3)cc(-c3ccccc3)c2c1N (centres unmarked) [SW033291, 2-(butylsulfinyl)-4-phenyl-6-(thiophen-2-yl)thieno[2,3-b]pyridin-3-amine]",number of mice surviving,"Day 0, 7 Gy, daily for 7 doses",3
same,number of mice surviving,"Day 0, 11 Gy, 1 dose/daily for 7 days (Table 7)",3
same,number of mice surviving,"Day 0, 11 Gy, 1 dose/daily, continuous every day",3
same,number of mice surviving,"Day 0, 11 Gy, 7 days, 2 dose daily",3
same,number of mice surviving,"Day 0, 11 Gy, daily for 7 doses (Table 6)",3
same,number of mice surviving,"Day 5, 7 Gy, daily for 7 doses",3
same,number of mice surviving,"Day 5, 11 Gy, 1 dose/daily for 7 days (Table 7)",3
same,number of mice surviving,"Day 5, 11 Gy, 1 dose/daily, continuous every day",3
same,number of mice surviving,"Day 5, 11 Gy, 7 days, 2 dose daily",3
same,number of mice surviving,"Day 5, 11 Gy, daily for 7 doses (Table 6)",3
same,number of mice surviving,"Day 6, 7 Gy, daily for 7 doses",3
same,number of mice surviving,"Day 6, 11 Gy, 1 dose/daily for 7 days (Table 7)",3
same,number of mice surviving,"Day 6, 11 Gy, 1 dose/daily, continuous every day",3
same,number of mice surviving,"Day 6, 11 Gy, 7 days, 2 dose daily",3
same,number of mice surviving,"Day 6, 11 Gy, daily for 7 doses (Table 6)",3
same,number of mice surviving,"Day 7, 7 Gy, daily for 7 doses",3
same,number of mice surviving,"Day 7, 11 Gy, 1 dose/daily for 7 days (Table 7)",3
same,number of mice surviving,"Day 7, 11 Gy, 1 dose/daily, continuous every day",3
same,number of mice surviving,"Day 7, 11 Gy, 7 days, 2 dose daily",3
same,number of mice surviving,"Day 7, 11 Gy, daily for 7 doses (Table 6)",3
same,number of mice surviving,"Day 8, 7 Gy, daily for 7 doses",3
same,number of mice surviving,"Day 8, 11 Gy, 1 dose/daily for 7 days (Table 7)",2
same,number of mice surviving,"Day 8, 11 Gy, 1 dose/daily, continuous every day",3
same,number of mice surviving,"Day 8, 11 Gy, 7 days, 2 dose daily",3
same,number of mice surviving,"Day 8, 11 Gy, daily for 7 doses (Table 6)",3
same,number of mice surviving,"Day 9, 7 Gy, daily for 7 doses",3
same,number of mice surviving,"Day 9, 11 Gy, 1 dose/daily for 7 days (Table 7)",1
same,number of mice surviving,"Day 9, 11 Gy, 1 dose/daily, continuous every day",2
same,number of mice surviving,"Day 9, 11 Gy, 7 days, 2 dose daily",2
same,number of mice surviving,"Day 9, 11 Gy, daily for 7 doses (Table 6)",2
same,number of mice surviving,"Day 10, 7 Gy, daily for 7 doses",3
same,number of mice surviving,"Day 10, 11 Gy, 1 dose/daily for 7 days (Table 7)",0
same,number of mice surviving,"Day 10, 11 Gy, 1 dose/daily, continuous every day",0
same,number of mice surviving,"Day 10, 11 Gy, 7 days, 2 dose daily",0
same,number of mice surviving,"Day 10, 11 Gy, daily for 7 doses (Table 6)",0
same,number of mice surviving,"Day 11, 7 Gy, daily for 7 doses",3
same,number of mice surviving,"Day 11, 9 Gy, daily for 7 doses",3
same,number of mice surviving,"Day 12, 7 Gy, daily for 7 doses",3
same,number of mice surviving,"Day 13, 7 Gy, daily for 7 doses",3
same,number of mice surviving,"Day 14, 7 Gy, daily for 7 doses",3
same,number of mice surviving,"Day 15, 7 Gy, daily for 7 doses",3
